Data source: PubChem BioAssay AID1259308 (NCATS, 2017)

- Purpose: 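Candidate targets for better recombinant protein yield in mammalian cells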 (primary screen)
- System: human HEK293 embryonic kidney cells stably expressing firefly luciferase (HEK-CMV-Luc2-Hygro)
- Reagent: single siRNA against human genes, 0.8 pmol siRNA per well
- Duration: 72 h
- Measurement: 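Reporter luminescence and viable-cell signal on separate replicate plates, given as percent of non-targeting control and median/MAD z-scores, plus per-cell luciferase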
- Scale: total luciferase, z-score and total luciferase, % of control: higher = more reporter protein produced
- Active means: 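An siRNA counts as active if its total luciferase robust z-score exceeds 3; genes with two or more such siRNAs out of three were retested with fresh siRNAs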
- Meaning of the calls: active = raised luciferase; inactive = no rise
Shown is one part, drawn at random, of about 59,000 reagents. Of all reagents, about 1,510 (2.6%) are marked active. 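Calls use total luciferase alone and ignore viability, so some active siRNAs may act by altering cell number.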 Reagents against one gene are numbered here. Further read-outs or replicates are left out here. Reagent sequences are not shown.

SPINK14 (serine peptidase inhibitor Kazal type 14 (putative)) #1 gave total luciferase, z-score -1.53; total luciferase, % of control 51.5; inactive.
With knock-down of SPINK14 (serine peptidase inhibitor Kazal type 14 (putative)) #2, the screen gave total luciferase, z-score -0.271; total luciferase, % of control 76.5; inactive.
Knock-down of SPINK14 (serine peptidase inhibitor Kazal type 14 (putative)) #3 resulted in: total luciferase, z-score -0.811; total luciferase, % of control 65.8; inactive.
After knock-down of CALHM1 (calcium homeostasis modulator 1) #1, the screen gave total luciferase, z-score -1.54; total luciferase, % of control 51.2; inactive.
With knock-down of CALHM1 (calcium homeostasis modulator 1) #2 the results were total luciferase, z-score 2.37; total luciferase, % of control 129; inactive.
For CALHM1 (calcium homeostasis modulator 1) #3, the entry reads total luciferase, z-score -1.02; total luciferase, % of control 61.5; inactive.
With knock-down of EI24 (EI24 autophagy associated transmembrane protein) #1, the record shows total luciferase, z-score 3.5; total luciferase, % of control 152; active.
Knock-down of EI24 (EI24 autophagy associated transmembrane protein) #2 came out at: total luciferase, z-score 0.83; total luciferase, % of control 98.4; inactive.
Silencing of EI24 (EI24 autophagy associated transmembrane protein) #3 gave: total luciferase, z-score 0.242; total luciferase, % of control 86.7; inactive.
Against NOMO2 (NODAL modulator 2) #1, the values are total luciferase, z-score 0.508; total luciferase, % of control 92; inactive.
With knock-down of NOMO2 (NODAL modulator 2) #2, the screen gave total luciferase, z-score -0.143; total luciferase, % of control 79.1; inactive.
With knock-down of NOMO2 (NODAL modulator 2) #3 the results were total luciferase, z-score 0.247; total luciferase, % of control 86.8; inactive.
DNAJC1 (DnaJ heat shock protein family (Hsp40) member C1) #1 showed total luciferase, z-score -0.39; total luciferase, % of control 74.1; inactive.
With knock-down of DNAJC1 (DnaJ heat shock protein family (Hsp40) member C1) #2, the record shows total luciferase, z-score 0.895; total luciferase, % of control 99.7; inactive.
DNAJC1 (DnaJ heat shock protein family (Hsp40) member C1) #3 showed total luciferase, z-score -0.95; total luciferase, % of control 63; inactive.

Not a retest: 7 of the entries above.
CALHM1 (calcium homeostasis modulator 1) #1: total luciferase, z-score = -1.54; total luciferase, % of control = 51.2; call = inactive
CALHM1 (calcium homeostasis modulator 1) #2: total luciferase, z-score = 2.37; total luciferase, % of control = 129; call = inactive
CALHM1 (calcium homeostasis modulator 1) #3: total luciferase, z-score = -1.02; total luciferase, % of control = 61.5; call = inactive
EI24 (EI24 autophagy associated transmembrane protein) #1: total luciferase, z-score = 3.5; total luciferase, % of control = 152; call = active
EI24 (EI24 autophagy associated transmembrane protein) #2: total luciferase, z-score = 0.83; total luciferase, % of control = 98.4; call = inactive
EI24 (EI24 autophagy associated transmembrane protein) #3: total luciferase, z-score = 0.242; total luciferase, % of control = 86.7; call = inactive
NOMO2 (NODAL modulator 2) #1: total luciferase, z-score = 0.508; total luciferase, % of control = 92; call = inactive

Next records follow.
Silencing of MANBAL (mannosidase beta like) #1 resulted in: total luciferase, z-score 0.298; total luciferase, % of control 87.8; inactive.
Depletion of MANBAL (mannosidase beta like) #2 gave: total luciferase, z-score -2.99; total luciferase, % of control 22.5; inactive.
Silencing of MANBAL (mannosidase beta like) #3 resulted in: total luciferase, z-score -1.78; total luciferase, % of control 46.5; inactive.
Knock-down of SSX2 (SSX family member 2) #1 resulted in: total luciferase, z-score 0.0227; total luciferase, % of control 82.3; inactive.
For SSX2 (SSX family member 2) #2, the entry reads total luciferase, z-score 1.45; total luciferase, % of control 111; inactive.
SSX2 (SSX family member 2) #3 showed total luciferase, z-score -0.0755; total luciferase, % of control 80.4; inactive.
MGAM (maltase-glucoamylase) #1 scored total luciferase, z-score 0.966; total luciferase, % of control 101; inactive.
For MGAM (maltase-glucoamylase) #2, the entry reads total luciferase, z-score -0.394; total luciferase, % of control 74; inactive.
MGAM (maltase-glucoamylase) #3 showed total luciferase, z-score -0.254; total luciferase, % of control 76.8; inactive.
Against RAB4B (RAB4B, member RAS oncogene family) #1, the values are total luciferase, z-score -0.626; total luciferase, % of control 69.4; inactive.
For RAB4B (RAB4B, member RAS oncogene family) #2 the deposit lists total luciferase, z-score -0.624; total luciferase, % of control 69.5; inactive.
RAB4B (RAB4B, member RAS oncogene family) #3 gave total luciferase, z-score -1.09; total luciferase, % of control 60.1; inactive.
SLC37A4 #1 gave total luciferase, z-score 2.41; total luciferase, % of control 130; inactive.
Depletion of SLC37A4 #2 came out at: total luciferase, z-score -0.668; total luciferase, % of control 68.6; inactive.
SLC37A4 #3 scored total luciferase, z-score -1; total luciferase, % of control 61.9; inactive.
Depletion of LNX1 (ligand of numb-protein X 1) #1 came out at: total luciferase, z-score 0.239; total luciferase, % of control 86.6; inactive.
Silencing of LNX1 (ligand of numb-protein X 1) #2 gave: total luciferase, z-score 1.17; total luciferase, % of control 105; inactive.
LNX1 (ligand of numb-protein X 1) #3 scored total luciferase, z-score -0.386; total luciferase, % of control 74.2; inactive.
FASN (fatty acid synthase) #1 scored total luciferase, z-score 0.512; total luciferase, % of control 92.1; inactive.
After knock-down of FASN (fatty acid synthase) #2 the results were total luciferase, z-score 0.195; total luciferase, % of control 85.8; inactive.
Against FASN (fatty acid synthase) #3, the entry reads total luciferase, z-score -0.397; total luciferase, % of control 74; inactive.
Depletion of RPS20 (ribosomal protein S20) #1 came out at: total luciferase, z-score -3.38; total luciferase, % of control 14.7; inactive.
After knock-down of RPS20 (ribosomal protein S20) #2, the screen gave total luciferase, z-score -2.37; total luciferase, % of control 34.8; inactive.
For RPS20 (ribosomal protein S20) #3, the values are total luciferase, z-score -2.04; total luciferase, % of control 41.3; inactive.
NR1H4 (nuclear receptor subfamily 1 group H member 4) #1 scored total luciferase, z-score -1.67; total luciferase, % of control 48.8; inactive.
Depletion of NR1H4 (nuclear receptor subfamily 1 group H member 4) #2 gave: total luciferase, z-score -0.783; total luciferase, % of control 66.3; inactive.
After knock-down of NR1H4 (nuclear receptor subfamily 1 group H member 4) #3, the record shows total luciferase, z-score -0.516; total luciferase, % of control 71.6; inactive.
